The data set in a line: general procedure: Fmoc solid-phase peptide synthesis; Rink-amide resin; HBTU/NMM; HBTU/HOBt/DIEA.

[ ]: non-standard residue; d: D form. Aib = CC(C)(N)C(=O)O

For Ac-LTFαHYWAQLβS-NH2, where the note is “cyclisation step, cyclic, sequence written open”, the cyclisation yield turned out to be 74%.

Ac-VK(Ac)L[Aib]VK(Ac)L-NH2 came in with an isolated yield (whole synthesis, based on resin substitution) of 5%.

“Ac-Val-Lys(Pyr)-Leu-Aib-Val-Lys(Ac)-Leu-NH2” registered a step yield (late stage modification step) of 16%.

For the origin of these results see patent US8586707B2 (The Research Foundation of State University of New York, priority 2008, dated 2013).
